The values that follow come from publication PMC5996148.

What all share (test): protein microarray (ProtoArray v5.0), streptavidin-Alexa Fluor 647
Conditions in all cases: 3'-biotin; 20 mM Tris (pH 7.5), 5 mM MgCl2, 100 mM KCl, 0.1% Tween-20, A/T-rich and random oligonucleotide blockers; temperature not stated; high values mean tight binding

The test system of test [1] is CPLX1 (human).
For test [2], the system named is CPLX2 (human).
Test [3] deals with CPSF2 (human).
Test [4] has as its system CPSF3 (human).
The test system of test [5] is CRABP2 (human).
In test [6] the test system is CRADD (human).
For test [7], the system named is CRB3 (human).
For test [8], the system named is CREB3L2 (human).
Test [9] concerns CRK (human).
Test [10] deals with CRKL (human).

This is one part of the list.

For the sequence “GGGAGGCTGAGGCAGG [G4-1 biotinylated (PQS2)]”, the binding signal in test [1] was -0.333 z-score; in [2] it was -0.312 z-score; in test [3] it was -0.313 z-score; in test [4] it was -0.306 z-score; in [5] it was -0.343 z-score; in test [6], -0.354 z-score. Besides, the binding signal in [7] is -0.33 z-score; in test [8] it was -0.32 z-score; in test [9] it was -0.325 z-score; in test [10], -0.314 z-score.
